Assay results from patent US9675662B2, “Compositions for inhibition of RNA polymerase I and methods of production and use thereof” (The Board of Regents of the University of Oklahoma, priority 2011, dated 2017).

System: WI38 cells
Experiment: Growth of WI38 cells (MTT assay) and peptide uptake
Type: cell-based
Details: fluorescent TAT-tagged 22mer
Protocol: FIG. 11 illustrates the effects of TAT-22mer on WI38 cells after 48 hours using the MTT assay.
In these experiments, and in others described below, cell numbers were determined using the […], and the absorbance at 570 nm is presented instead of cell numbers.

| Sequence | uptake of peptide by WI38 cells |
| --- | --- |
| YGRKKEEQRRNKVSSSHIGCLVHGCFNASIPK (1st ten amino acids are TAT peptide from HIV; last 22 amino acids are from Homo sapiens) [TAT-22mer, 22mer with ten TAT amino acids added to the N-terminus] | cells take up |
| NKVSSSHIGCLVHGCFNASIPK (listed as Homo sapiens) [22mer, amino acids 137 to 158 of mouse Rpa43] | did take up the peptide |
